Data as given in PubChem BioAssay AID652272 (Drosophila RNAi Screening Center, 2013).
Aim: 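Genome-wide knock-down search for components of Hedgehog signalling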 (primary screen). Cell system: Drosophila clone 8 (Cl8) cells. Knock-down reagent: long dsRNA against Drosophila genes. Read-out: 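Plate reader light from a firefly reporter under a ptc promoter fragment that responds to Hedgehog, with Renilla light as transfection reference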. Direction: firefly Hh reporter signal: higher = more ptc reporter light; Renilla reference signal: higher = more Renilla control light. Active means: 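Called a hit if the two-replicate mean z-score lies below -2 or above +3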. Meaning of the calls: active = hit: reporter lowered or raised; inactive = not a hit.
In all, the deposit lists about 21,000 reagents; below is a random part of those that have a named target and a result. In the full data, 503 (2.4%) got an active call. 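Raw plate light values, not normalised; calls rest on replicate z-scores that were not deposited; hits include reporter decreases as well as increases.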 A plus sign joins genes that one reagent is predicted to hit. No sequences are given here. Not given: the amount of reagent, the time to read-out.

no.	target gene	PubChem SID	firefly Hh reporter signal, replicate 1	firefly Hh reporter signal, replicate 2	firefly Hh reporter signal, replicate 3	Renilla reference signal, replicate 1	Renilla reference signal, replicate 2	outcome
1	stg	SID104196863	39568	46680		1220	1479	inactive
2	Kdm4A	SID104186378	1.21e5	90640		4405	2888	inactive
3	CG2765	SID104184107	65937	73067		3204	3082	inactive
4	CG13380 + CG4174	SID104189780	66249	46997		2704	1913	inactive
5	CG13380 + CG4174	SID104190198	88282			1991	2816	inactive
6	Atpalpha	SID104193911	1.34e5	1.01e5		5873	4348	inactive
7	Cpr	SID104183085	76787	1.18e5		2952	4522	inactive
8	CG43288	SID104197106	5.29e5	2.30e5		23338	5045	inactive
9	CG6845	SID104188368	1.01e5	60421		4263	2611	inactive
10	CG7367	SID104182841	1.02e5	59600		2859	4845	inactive
11	CG15710	SID104186373	66689	54115		2032	4073	inactive
12	CG13693	SID104180154	1.75e5	1.17e5		3909	3329	inactive
13	CG43901	SID104199189	74902	1.84e5		1959	6349	inactive
14	CG43901	SID104199444	71128	89985		2440	4800	inactive
15	CG43901	SID104199445	1.23e5	7.56e5	3.52e5	3507	6272	inactive
16	Reepl1	SID104199210	1.20e5	2.17e5		4649	9188	inactive
17	Lipt1	SID104185392	1.11e5	2.13e5		3019	8496	inactive
18	maf-S	SID104187140	88400	52837		3200	3868	inactive

Next part (4 carried over from the part before).
no.	target gene	PubChem SID	firefly Hh reporter signal, replicate 1	firefly Hh reporter signal, replicate 2	firefly Hh reporter signal, replicate 3	Renilla reference signal, replicate 1	Renilla reference signal, replicate 2	outcome
15	CG43901	SID104199445	1.23e5	7.56e5	3.52e5	3507	6272	inactive
16	Reepl1	SID104199210	1.20e5	2.17e5		4649	9188	inactive
17	Lipt1	SID104185392	1.11e5	2.13e5		3019	8496	inactive
18	maf-S	SID104187140	88400	52837		3200	3868	inactive
19	pkm	SID104199466	1.39e5	1.04e5		3232	2621	inactive
20	CG33225	SID104183673	1.03e5	2.41e5		2374	10896	inactive
21	fs(1)Ya	SID104198568	81858	86728		1684	2651	inactive
22	CG33268	SID104189935	56433	43856	33664	5451	3309	inactive
23	mil	SID104195488	1.29e5	1.10e5		4983	3524	inactive
24	CG1909	SID104196942	1.26e5	62512		2731	3041	inactive
25	CG10163	SID104189502	40358	44582		3804	3600	inactive
26	Ptr	SID104184644	70562	59720		1224	4438	inactive
27	CG1440	SID104197707	1.35e5	3.05e5		4166	11632	inactive
28	Rab11	SID104196601	4.34e5	92723		26618	509	inactive
29	uif	SID104180755	9.90e5	3.07e5		48697	12528	inactive
30	uif	SID104183219	1.65e5	89544		4096	8614	inactive
31	Pgant4	SID104180509	1.42e5	97957		3564	7053	inactive
32	CCHa1	SID104194613	55440	54049		1302	1234	inactive
33	Edem1	SID104198365	69931	61405		1906	2053	inactive
34	CG8142	SID104199878	1.33e5	1.33e5		2957	3031	inactive
35	Adh + Adhr	SID104181654	94588	46307		4080	2332	inactive
36	Adh + Adhr	SID104181655	1.54e5	60743		3668	5704	inactive
37	CG6726	SID104195893	4.55e5	75476		22901	2408	inactive
38	CG30496	SID104186597	1.20e5	1.06e5		5325	4193	inactive
39	CG10510	SID104191406	1.13e5	1.07e5		4257	3925	inactive
